Measured values reported in patent publication US12311049B2, “Formulation of ear drops and methods for delivery thereof for treating upper respiratory infections” (priority 2023, dated 2025).
For at least one compound, name, drawing or mass did not settle the structure.

Legend:
Assay type in all cases: cell-based
[1] = tested on: original WA1 viral strain of SARS-CoV-2; assay: in vitro infectivity of SARS-CoV-2 to epithelial cells expressing ACE-2 and TMPRSS-2 (virus-NP protein in culture media); conditions: MOI 0.01
[2] = tested on: SARS-CoV-2 BA.5
[3] = tested on: SARS-CoV-2 BA.1
[4] = tested on: SARS-CoV-2 XBB1.5
[5] = tested on: SARS-CoV-2 XBB
[6] = tested on: SARS-CoV-2 BA.2

CCC(CC)COC(=O)[C@H](C)N[P@](=O)(OC[C@H]1O[C@@](C#N)(c2ccc3c(N)ncnn23)[C@H](O)[C@@H]1O)Oc1ccccc1 [RMD, remdesivir]
suppression of SARS-CoV-2 infection, original WA1 viral strain [1]: markedly suppressed
suppression of replication of SARS-CoV-2 BA.5 [2]: significantly suppressed replication
protection of cells against SARS-CoV-2 BA.1 infection [3]: protected cells
suppression of replication of SARS-CoV-2 XBB1.5 [4]: significantly suppressed replication
suppression of replication of SARS-CoV-2 XBB [5]: significantly suppressed replication
suppression of replication of SARS-CoV-2 BA.2 [6]: significantly suppressed replication
